What all share (experiment): log2 fold change, soluble protein after heating vs DMSO (PISA); higher = thermal stabilisation; K562 lysate, 10 uM; active = over 0.2 and 3.5 SD of the protein, either way, in both replicates (recomputed)
Compound in assay [1]: C1=CC=C(C=C1)[C@H](COC2=CC3=C(C=C2)NC(=O)N3)NC(=O)C4=CC=CN(C4=O)CC5=CC(=C(C=C5)F)F
The essentials: (§1)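 Dounce homogenisation of K562 pellets in PBS pH 7.4 with 1 mM MgCl2 produced a crude extract, used at 1 mg/mL protein. Exposure to 10 μM compound lasted 30 min, and aliquots were then heated for 3 min across 48°C-58°C, pooled and brought to 0.5% NP-40 at 4°C. The supernatant after 21,000xg for 90 min was quantified by TMTpro 16plex LC-MS/MS with channel sums equalised. Duplicate values are given as log-two fold change in thermal stability relative to solvent controls.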

By UniProt entry, the sequences of proteins in these tests, tags left out. Where a name states a change or a piece, a line headed by the entry shows the natural chain unless it says otherwise.
UniProt P43250, whole entry, looked up: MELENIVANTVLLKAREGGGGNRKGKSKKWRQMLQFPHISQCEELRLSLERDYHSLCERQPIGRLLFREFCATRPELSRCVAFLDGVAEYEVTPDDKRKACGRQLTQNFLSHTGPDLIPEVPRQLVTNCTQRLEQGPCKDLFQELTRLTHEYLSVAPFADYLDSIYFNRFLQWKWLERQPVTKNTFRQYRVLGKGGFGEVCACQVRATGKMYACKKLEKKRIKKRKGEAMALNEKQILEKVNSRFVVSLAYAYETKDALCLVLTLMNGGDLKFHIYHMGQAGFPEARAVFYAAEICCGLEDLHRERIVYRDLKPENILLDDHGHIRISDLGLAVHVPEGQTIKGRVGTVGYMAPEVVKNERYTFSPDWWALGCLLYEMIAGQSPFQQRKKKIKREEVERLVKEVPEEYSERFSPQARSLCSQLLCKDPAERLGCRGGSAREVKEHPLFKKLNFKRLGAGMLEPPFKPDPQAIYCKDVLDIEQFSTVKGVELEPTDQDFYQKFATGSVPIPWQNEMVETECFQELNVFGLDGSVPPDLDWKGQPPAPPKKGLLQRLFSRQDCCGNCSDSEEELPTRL
UniProt P00390: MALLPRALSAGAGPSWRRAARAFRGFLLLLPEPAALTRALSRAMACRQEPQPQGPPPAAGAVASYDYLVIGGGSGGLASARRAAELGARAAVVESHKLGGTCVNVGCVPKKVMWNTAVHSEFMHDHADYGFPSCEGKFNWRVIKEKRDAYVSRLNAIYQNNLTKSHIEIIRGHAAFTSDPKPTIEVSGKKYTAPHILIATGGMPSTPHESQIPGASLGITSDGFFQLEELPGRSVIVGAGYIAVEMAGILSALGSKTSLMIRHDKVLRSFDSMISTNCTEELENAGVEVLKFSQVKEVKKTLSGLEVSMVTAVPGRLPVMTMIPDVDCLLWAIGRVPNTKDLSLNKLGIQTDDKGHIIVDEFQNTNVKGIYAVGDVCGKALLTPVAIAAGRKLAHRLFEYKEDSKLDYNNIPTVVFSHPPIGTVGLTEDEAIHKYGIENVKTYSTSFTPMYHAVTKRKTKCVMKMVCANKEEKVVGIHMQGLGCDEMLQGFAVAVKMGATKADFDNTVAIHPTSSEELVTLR
UniProt P0C0S5, whole entry, looked up: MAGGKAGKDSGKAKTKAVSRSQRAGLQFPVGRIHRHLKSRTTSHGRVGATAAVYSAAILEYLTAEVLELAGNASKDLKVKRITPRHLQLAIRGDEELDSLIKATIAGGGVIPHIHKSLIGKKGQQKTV
UniProt P78417: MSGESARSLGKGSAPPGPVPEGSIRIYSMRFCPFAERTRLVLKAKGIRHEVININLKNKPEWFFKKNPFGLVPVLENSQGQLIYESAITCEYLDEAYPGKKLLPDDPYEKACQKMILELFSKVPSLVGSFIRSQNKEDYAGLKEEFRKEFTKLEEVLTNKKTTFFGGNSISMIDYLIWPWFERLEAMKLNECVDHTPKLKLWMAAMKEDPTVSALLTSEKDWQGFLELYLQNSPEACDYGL
UniProt Q7Z4Q2: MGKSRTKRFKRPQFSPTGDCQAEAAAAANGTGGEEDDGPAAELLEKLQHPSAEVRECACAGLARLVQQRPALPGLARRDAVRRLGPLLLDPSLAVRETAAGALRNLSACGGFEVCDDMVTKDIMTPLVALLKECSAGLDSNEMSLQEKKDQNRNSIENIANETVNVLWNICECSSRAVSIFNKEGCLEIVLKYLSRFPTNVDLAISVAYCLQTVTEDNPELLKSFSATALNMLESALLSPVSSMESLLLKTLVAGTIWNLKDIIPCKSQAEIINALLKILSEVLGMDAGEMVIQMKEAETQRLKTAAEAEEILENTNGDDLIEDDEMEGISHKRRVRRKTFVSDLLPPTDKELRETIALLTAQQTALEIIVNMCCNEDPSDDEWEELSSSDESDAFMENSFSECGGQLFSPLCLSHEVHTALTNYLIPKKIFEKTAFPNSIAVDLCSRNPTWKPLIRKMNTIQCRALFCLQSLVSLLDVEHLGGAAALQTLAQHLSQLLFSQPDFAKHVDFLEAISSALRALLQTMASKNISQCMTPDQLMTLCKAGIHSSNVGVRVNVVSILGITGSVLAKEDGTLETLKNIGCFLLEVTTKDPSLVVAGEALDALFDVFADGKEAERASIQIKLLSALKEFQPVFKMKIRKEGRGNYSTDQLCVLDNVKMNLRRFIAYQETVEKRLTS
UniProt Q8WW33: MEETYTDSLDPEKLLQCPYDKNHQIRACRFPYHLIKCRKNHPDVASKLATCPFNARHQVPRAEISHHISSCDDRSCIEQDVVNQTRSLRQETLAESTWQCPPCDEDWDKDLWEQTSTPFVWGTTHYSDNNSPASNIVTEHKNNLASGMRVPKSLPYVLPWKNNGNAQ
UniProt O75367, whole entry, looked up: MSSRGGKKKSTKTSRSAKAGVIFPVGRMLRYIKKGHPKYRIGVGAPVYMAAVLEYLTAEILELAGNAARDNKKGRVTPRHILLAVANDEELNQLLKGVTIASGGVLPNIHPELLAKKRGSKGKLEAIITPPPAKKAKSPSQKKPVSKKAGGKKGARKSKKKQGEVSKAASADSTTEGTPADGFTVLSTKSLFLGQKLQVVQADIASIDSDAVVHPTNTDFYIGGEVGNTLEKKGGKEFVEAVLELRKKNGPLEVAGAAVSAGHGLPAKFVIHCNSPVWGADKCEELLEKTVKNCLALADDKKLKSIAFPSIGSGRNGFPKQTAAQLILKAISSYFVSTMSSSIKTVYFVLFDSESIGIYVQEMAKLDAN
UniProt P49840: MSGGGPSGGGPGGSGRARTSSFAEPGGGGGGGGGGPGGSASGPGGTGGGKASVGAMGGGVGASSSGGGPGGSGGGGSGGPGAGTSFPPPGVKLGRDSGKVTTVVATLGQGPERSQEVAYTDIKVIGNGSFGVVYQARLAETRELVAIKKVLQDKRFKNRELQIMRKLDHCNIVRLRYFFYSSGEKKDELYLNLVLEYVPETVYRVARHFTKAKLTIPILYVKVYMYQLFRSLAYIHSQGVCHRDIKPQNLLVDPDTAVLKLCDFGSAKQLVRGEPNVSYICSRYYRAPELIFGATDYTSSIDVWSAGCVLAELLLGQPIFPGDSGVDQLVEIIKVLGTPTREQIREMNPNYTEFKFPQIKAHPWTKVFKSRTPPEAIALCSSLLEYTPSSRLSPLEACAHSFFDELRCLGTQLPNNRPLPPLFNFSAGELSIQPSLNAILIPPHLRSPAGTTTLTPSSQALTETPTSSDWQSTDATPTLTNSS
UniProt Q9BY41: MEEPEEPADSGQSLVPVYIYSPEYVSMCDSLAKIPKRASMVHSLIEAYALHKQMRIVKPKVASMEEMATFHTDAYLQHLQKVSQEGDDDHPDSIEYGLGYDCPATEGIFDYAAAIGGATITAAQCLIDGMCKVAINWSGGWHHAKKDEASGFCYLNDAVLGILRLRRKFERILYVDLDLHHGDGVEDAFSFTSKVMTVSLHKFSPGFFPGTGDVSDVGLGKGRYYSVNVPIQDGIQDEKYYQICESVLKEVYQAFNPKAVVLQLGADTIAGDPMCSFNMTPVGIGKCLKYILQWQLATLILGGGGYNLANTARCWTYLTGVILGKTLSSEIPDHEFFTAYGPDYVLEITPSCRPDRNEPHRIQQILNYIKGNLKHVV
UniProt P13984, whole entry, looked up: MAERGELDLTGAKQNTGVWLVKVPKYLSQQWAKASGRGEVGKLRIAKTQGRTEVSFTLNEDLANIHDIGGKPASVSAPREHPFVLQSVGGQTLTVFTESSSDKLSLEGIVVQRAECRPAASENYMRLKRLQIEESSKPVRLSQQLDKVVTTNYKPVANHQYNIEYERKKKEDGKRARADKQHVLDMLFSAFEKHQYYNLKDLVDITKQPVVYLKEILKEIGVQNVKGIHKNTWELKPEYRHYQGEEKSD
UniProt P25098: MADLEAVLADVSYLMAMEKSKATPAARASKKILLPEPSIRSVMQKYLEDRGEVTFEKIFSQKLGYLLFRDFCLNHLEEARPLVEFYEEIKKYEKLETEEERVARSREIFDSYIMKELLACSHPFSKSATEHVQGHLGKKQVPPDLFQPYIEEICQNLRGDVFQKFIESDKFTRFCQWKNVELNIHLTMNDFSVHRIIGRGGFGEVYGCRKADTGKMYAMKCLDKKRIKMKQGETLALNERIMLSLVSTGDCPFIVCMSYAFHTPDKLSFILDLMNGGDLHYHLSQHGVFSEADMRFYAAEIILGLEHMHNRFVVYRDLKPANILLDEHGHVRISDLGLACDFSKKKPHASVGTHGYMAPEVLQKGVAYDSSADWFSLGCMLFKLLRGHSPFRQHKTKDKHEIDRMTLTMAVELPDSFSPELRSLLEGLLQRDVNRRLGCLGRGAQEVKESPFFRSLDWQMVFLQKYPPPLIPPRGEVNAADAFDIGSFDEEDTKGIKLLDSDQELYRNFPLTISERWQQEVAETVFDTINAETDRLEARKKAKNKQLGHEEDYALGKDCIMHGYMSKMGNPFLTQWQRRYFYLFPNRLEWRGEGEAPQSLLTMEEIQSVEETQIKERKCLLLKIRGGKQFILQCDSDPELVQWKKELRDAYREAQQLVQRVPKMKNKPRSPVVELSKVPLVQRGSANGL
UniProt O14929: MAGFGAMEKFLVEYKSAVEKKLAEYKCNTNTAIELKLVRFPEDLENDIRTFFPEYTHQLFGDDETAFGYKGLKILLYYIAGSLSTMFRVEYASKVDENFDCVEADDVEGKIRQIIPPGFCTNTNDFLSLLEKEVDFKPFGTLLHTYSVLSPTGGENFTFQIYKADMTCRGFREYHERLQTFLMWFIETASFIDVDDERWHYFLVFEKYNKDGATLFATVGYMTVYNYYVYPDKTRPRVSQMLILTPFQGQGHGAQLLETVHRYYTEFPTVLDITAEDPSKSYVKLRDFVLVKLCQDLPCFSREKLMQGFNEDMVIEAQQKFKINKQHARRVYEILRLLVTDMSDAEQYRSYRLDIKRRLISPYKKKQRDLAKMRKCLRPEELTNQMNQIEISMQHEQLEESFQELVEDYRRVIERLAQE
UniProt P14317: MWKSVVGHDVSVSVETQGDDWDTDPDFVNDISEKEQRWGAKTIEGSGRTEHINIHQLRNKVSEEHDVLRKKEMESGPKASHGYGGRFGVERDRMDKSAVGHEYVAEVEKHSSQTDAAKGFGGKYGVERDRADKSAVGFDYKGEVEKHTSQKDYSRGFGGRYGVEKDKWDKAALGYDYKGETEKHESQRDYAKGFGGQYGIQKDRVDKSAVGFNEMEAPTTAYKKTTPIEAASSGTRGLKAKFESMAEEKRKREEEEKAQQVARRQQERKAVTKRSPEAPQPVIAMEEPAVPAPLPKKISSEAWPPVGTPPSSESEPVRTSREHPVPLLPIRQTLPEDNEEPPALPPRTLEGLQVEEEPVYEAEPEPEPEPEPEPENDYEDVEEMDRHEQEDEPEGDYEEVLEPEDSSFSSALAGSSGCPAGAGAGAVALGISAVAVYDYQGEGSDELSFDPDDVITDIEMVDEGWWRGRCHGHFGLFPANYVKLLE

Compound in assay [2]: CC1=C(SC2=C1C(=N[C@H](C3=NN=C(N32)C)CC(=O)N)C4=CC=C(C=C4)Cl)C
The essentials:
as §1

Compound in assay [3]: CC1=C2C(=CC=C1)N=C(N(C2=O)C3=CC=CC=C3C)CN4C=NC5=C(N=CN=C54)N
The essentials:
as §1

Compound in assay [4]: Cc1sc2c(c1C)C(c1ccc(Cl)cc1)=N[C@@H](CC(=O)OC(C)(C)C)c1nnc(C)n1-2
The gist of the method:
as §1

Compound in assay [5]: c1ccc([C@@H]2C[C@H]2NC2CCNCC2)cc1
The gist of the method:
as §1

The list shows a part of the results.

With GRK6 isoform 2 (UniProt P43250), the log2 fold change is inactive: 0.086 in assay [1]; inactive: -0.034 in assay [2]; inactive: -0.135 in assay [3]; inactive: 0.084 in assay [4]; inactive: -0.018 in assay [5].

GSR isoform 5 (UniProt P00390): the log2 fold change in assay [1] was inactive: -0.015; in assay [2], inactive: 0.021; in assay [3] it was inactive: 0.025; in assay [4], inactive: -0.14; in assay [5], inactive: -0.453.

As to H2AZ1 (UniProt P0C0S5), the log2 fold change in assay [1] is inactive: 0.003; in assay [2] it was inactive: -0.036; in assay [3] it was inactive: 0.001; in assay [4] it was inactive: 0.173; in assay [5], inactive: 0.051.

Take GSTO1 (UniProt P78417): the log2 fold change in assay [1] was inactive: 0.002; in assay [2], inactive: 0.006; in assay [3], inactive: -0.042; in assay [4] it was inactive: 0.029; in assay [5], inactive: 0.022.

For the target HEATR3 (UniProt Q7Z4Q2), the log2 fold change in assay [1] is inactive: -0.101; in assay [2], inactive: 0.022; in assay [3] it was inactive: 0.008; in assay [4] it was inactive: -0.024; in assay [5] it was inactive: 0.028.

In the case of GTSF1 (UniProt Q8WW33), the log2 fold change is inactive: 0.088 in assay [1]; inactive: -0.067 in assay [2]; inactive: 0.004 in assay [3]; inactive: 0.039 in assay [4]; inactive: -0.006 in assay [5].

Take H2AFY (UniProt O75367): the log2 fold change in assay [1] was inactive: -0.035; in assay [2], inactive: 0.045; in assay [3], inactive: 0.026; in assay [4] it was active: 0.296; in assay [5], inactive: -0.045.

With GSK3A (UniProt P49840), the log2 fold change in assay [1] was inactive: -0.041; in assay [2] it was inactive: 0.03; in assay [3], inactive: -0.059; in assay [4] it was inactive: 0.036; in assay [5], inactive: -0.044.

HDAC8 (UniProt Q9BY41): the log2 fold change was inactive: 0.076 in assay [1]; inactive: 0.273 in assay [2]; inactive: 0.046 in assay [3]; inactive: -0.02 in assay [4]; inactive: 0.08 in assay [5].

Turning to GTF2F2 (UniProt P13984), the log2 fold change is inactive: -0.003 in assay [1]; inactive: 0.028 in assay [2]; inactive: 0.015 in assay [3]; inactive: 0.026 in assay [4]; inactive: -0.012 in assay [5].

As to GRK2 (UniProt P25098), the log2 fold change is inactive: -0.05 in assay [1]; inactive: 0.009 in assay [2]; inactive: 0.03 in assay [3]; inactive: 0.007 in assay [4]; inactive: -0.008 in assay [5].

As for HAT1 (UniProt O14929), the log2 fold change in assay [1] is inactive: 0.066; in assay [2], inactive: -0.02; in assay [3], inactive: 0.008; in assay [4] it was inactive: -0.016; in assay [5], inactive: -0.042.

With HCLS1 (UniProt P14317), the log2 fold change in assay [1] was inactive: 0.015; in assay [2], inactive: 0.005; in assay [3], inactive: -0.027; in assay [4], inactive: 0.009; in assay [5] it was inactive: -0.006.

(Values after the supplement of paper PMC10849652.)
